No constants are given. Whether binding was seen depends on the method and setting. Some binding calls cover weakened binding; strength is not graded here.
How the values were obtained:
Test in all cases: flow cytometry, GS-CHO cells with CD73 mutant
[1] = biological target: T1, CD73 mutant R109A/K136A (human) (UniProt P21589)
T1 sequence: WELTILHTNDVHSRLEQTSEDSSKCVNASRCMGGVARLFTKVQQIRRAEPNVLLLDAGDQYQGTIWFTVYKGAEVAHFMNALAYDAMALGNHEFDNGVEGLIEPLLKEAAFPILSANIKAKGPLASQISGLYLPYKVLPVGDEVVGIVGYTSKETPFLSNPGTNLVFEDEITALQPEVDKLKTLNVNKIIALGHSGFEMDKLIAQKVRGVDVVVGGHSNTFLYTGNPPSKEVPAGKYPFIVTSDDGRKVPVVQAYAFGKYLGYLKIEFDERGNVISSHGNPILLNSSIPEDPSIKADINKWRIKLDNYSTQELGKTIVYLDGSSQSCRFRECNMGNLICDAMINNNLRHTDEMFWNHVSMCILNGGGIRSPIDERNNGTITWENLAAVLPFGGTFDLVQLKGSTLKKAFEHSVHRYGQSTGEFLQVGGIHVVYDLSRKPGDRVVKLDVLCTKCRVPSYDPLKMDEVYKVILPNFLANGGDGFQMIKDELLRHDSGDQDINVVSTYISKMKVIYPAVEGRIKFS

[2] = biological target: T2, CD73 mutant L157A/S155A/L159A/Q153A (human) (UniProt P21589)
T2 sequence: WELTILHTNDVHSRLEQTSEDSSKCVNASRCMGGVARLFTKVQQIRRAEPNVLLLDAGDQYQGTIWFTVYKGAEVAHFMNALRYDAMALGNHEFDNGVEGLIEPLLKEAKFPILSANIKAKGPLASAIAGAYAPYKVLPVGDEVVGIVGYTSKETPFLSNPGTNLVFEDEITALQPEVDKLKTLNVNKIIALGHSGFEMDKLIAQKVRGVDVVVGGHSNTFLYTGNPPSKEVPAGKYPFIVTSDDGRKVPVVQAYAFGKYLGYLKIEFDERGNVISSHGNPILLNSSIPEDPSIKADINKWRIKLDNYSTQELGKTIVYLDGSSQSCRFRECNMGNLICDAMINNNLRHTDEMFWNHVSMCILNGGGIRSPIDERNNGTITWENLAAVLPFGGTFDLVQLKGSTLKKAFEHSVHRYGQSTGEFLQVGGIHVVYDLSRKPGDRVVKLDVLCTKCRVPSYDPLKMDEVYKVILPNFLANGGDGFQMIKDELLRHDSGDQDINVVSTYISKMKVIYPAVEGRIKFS

[3] = biological target: T3, CD73 mutant F265A/H304A (human) (UniProt P21589)
T3 sequence: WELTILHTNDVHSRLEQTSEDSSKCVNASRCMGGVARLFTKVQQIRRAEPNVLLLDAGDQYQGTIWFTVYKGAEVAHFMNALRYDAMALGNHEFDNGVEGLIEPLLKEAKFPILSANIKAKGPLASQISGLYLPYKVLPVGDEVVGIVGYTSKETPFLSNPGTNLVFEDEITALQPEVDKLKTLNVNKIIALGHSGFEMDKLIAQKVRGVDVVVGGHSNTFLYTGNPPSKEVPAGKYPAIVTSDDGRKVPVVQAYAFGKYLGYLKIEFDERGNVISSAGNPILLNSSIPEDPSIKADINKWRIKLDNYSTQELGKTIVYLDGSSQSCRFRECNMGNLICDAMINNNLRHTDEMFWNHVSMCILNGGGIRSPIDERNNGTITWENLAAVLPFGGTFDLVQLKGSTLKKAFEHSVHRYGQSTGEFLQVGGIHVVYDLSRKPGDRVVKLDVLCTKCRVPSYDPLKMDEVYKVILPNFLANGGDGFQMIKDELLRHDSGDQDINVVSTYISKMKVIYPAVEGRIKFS

[4] = biological target: T4, CD73 mutant L157A/S155A/L159A (human) (UniProt P21589)
T4 sequence: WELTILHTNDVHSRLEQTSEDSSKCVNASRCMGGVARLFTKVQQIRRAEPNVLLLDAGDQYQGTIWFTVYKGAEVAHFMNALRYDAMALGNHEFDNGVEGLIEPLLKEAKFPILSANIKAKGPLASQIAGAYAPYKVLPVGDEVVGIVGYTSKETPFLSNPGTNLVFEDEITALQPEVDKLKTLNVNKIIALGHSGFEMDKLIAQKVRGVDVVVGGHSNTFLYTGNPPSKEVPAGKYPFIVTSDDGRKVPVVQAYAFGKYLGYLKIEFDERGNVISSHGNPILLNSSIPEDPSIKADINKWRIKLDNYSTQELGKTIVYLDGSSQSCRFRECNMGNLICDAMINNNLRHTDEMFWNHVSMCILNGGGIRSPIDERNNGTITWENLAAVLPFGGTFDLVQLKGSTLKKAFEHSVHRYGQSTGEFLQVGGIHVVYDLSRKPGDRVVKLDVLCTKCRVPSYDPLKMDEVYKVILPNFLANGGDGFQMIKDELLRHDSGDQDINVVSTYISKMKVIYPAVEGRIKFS

[5] = biological target: T5, CD73 mutant E224A/K227A (human) (UniProt P21589)
T5 sequence: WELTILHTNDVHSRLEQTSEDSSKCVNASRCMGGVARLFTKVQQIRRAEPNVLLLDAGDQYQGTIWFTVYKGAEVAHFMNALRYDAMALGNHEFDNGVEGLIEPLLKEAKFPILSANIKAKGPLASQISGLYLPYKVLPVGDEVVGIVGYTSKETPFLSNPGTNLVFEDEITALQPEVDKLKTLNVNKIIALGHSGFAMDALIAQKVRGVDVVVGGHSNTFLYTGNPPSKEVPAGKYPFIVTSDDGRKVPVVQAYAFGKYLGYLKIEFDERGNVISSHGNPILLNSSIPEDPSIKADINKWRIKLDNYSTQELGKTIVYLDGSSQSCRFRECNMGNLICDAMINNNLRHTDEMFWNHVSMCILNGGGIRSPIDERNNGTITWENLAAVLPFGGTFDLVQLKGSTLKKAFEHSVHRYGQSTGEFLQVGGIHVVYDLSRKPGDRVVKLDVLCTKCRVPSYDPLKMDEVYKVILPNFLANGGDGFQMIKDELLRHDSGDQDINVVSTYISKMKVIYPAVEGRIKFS

Measured: binding

B1: ADI-37505 (antibody, human IgG4 S228P, kappa, F234A L235A, V domains shown)
VH: QVQLVESGGGLVQPGGSLRLSCAASGFTFSNYAMTWVRQAPGKGLEWVSAISGRGTATYYADSVKGRFTISRDNSKNTLYLQMNSLRAEDTAVYYCARGGPYGSGSYWDTFDYWGQGTLVTVSS
VL: EIVMTQSPATLSVSPGERATLSCRASQSVSSNLAWYQQKPGQAPRLLIYGASTRATGIPARFSGSGSGTEFTLTISSLQSEDFAVYYCQQYTNHYTFGGGTKVEIKR
binds: [1] | [2] | [3] | [4] | [5]

B2: ADI-37506 (antibody, human IgG4 S228P, kappa, F234A L235A, V domains shown)
VH: EVQLLESGGGLVQPGGSLRLSCAASGFTFSNLAMSWVRQAPGKGLEWVSAISGRATSTYYADSVKGRFTISRDNSKNTLYLQMNSLRAEDTAVYYCARGGPYGSGSYWDTFDYWGQGTLVTVSS
VL: EIVMTQSPATLSVSPGERATLSCRASQSVSSNLAWYQQKPGQAPRLLIYGASTRATGIPARFSGSGSGTEFTLTISSLQSEDFAVYYCQQYTNHYTFGGGTKVEIKR
binds: [1] | [2] | [3] | [4] | [5]
